The filed quantity is “Percent Effect” (%).
How 0% and 100% were set is not recorded. Most values in the screen are low, and negative values occur.
This is an unselected part of the compounds tested.
A dash means the value is not listed here; it may have been measured.

Protein sequences, listed by entry. Tags and fused reporters are not part of them. Residues count along the entry.
UniProt I6X8D2, whole entry: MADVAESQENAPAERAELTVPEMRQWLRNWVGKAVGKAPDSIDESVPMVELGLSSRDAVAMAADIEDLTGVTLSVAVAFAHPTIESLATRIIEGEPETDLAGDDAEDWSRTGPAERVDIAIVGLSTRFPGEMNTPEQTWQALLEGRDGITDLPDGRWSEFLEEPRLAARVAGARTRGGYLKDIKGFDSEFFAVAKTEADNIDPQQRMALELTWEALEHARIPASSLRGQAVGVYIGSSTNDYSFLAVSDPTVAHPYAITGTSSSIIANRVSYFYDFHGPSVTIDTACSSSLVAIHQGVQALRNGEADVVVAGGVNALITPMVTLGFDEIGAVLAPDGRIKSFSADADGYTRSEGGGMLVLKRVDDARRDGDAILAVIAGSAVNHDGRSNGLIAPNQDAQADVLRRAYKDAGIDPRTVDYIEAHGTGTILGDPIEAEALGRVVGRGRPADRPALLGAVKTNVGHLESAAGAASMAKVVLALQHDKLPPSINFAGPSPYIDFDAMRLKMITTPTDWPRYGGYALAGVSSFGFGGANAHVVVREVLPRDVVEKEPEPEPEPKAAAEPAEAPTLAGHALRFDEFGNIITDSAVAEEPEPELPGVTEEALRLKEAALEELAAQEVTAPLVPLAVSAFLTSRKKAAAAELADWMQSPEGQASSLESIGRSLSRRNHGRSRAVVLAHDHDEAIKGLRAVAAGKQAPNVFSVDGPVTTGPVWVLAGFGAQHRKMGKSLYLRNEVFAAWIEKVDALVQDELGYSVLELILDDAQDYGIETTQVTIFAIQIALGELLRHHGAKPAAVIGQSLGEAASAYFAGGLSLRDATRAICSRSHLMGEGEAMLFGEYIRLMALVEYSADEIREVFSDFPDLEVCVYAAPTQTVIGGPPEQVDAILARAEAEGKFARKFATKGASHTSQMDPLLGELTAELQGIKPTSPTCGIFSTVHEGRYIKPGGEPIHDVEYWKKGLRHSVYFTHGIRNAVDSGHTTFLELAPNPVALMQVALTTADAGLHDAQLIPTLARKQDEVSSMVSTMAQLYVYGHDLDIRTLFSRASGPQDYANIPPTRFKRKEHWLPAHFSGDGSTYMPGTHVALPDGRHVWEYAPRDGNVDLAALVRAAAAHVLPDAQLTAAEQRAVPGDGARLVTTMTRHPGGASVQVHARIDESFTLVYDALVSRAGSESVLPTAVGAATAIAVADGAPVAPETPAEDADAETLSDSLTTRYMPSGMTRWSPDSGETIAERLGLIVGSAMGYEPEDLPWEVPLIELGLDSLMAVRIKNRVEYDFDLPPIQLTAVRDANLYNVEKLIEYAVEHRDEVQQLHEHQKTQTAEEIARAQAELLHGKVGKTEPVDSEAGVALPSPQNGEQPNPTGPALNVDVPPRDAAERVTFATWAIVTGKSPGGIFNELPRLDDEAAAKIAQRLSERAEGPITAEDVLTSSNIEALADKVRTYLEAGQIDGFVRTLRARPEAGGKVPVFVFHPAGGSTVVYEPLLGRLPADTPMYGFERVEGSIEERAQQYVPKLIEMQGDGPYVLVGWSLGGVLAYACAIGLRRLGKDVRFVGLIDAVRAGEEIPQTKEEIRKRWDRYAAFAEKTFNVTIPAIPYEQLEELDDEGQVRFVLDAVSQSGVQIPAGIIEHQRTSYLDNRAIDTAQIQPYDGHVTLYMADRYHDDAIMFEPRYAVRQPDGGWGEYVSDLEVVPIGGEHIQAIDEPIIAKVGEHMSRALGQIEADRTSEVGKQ
UniProt P9WNZ1, whole entry: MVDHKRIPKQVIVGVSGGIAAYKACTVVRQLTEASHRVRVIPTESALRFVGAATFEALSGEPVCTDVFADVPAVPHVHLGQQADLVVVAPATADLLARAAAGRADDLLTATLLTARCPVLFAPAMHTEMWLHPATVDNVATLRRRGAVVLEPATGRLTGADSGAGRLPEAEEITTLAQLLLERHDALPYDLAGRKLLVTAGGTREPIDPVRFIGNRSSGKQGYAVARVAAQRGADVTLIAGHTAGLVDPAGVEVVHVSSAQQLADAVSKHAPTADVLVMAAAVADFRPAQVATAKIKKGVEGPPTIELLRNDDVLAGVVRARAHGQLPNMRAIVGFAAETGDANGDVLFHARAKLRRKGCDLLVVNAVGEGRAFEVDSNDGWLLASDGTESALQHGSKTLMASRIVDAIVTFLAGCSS
UniProt P9WFT3, whole entry: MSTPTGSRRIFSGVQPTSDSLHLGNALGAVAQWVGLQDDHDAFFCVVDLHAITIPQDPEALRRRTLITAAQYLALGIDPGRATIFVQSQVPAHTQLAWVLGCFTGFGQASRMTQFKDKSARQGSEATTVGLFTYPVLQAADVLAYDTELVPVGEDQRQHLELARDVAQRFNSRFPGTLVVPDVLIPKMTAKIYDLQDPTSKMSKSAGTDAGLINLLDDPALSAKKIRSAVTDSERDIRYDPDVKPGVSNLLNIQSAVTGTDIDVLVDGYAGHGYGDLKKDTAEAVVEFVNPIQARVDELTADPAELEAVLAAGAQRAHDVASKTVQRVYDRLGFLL
UniProt A4I591, 1-473: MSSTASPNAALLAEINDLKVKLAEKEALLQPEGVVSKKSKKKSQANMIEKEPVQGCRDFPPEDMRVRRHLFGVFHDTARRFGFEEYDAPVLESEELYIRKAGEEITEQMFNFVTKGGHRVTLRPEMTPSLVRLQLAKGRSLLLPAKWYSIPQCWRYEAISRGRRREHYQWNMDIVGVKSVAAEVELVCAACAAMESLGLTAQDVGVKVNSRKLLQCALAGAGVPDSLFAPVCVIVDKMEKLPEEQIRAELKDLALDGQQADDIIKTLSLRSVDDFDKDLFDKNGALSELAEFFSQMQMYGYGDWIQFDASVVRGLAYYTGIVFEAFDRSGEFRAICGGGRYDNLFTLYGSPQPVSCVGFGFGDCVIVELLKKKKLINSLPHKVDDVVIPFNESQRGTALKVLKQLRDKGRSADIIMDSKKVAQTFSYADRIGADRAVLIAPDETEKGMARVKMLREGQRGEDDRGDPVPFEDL
UniProt Q4DA54, 1-478: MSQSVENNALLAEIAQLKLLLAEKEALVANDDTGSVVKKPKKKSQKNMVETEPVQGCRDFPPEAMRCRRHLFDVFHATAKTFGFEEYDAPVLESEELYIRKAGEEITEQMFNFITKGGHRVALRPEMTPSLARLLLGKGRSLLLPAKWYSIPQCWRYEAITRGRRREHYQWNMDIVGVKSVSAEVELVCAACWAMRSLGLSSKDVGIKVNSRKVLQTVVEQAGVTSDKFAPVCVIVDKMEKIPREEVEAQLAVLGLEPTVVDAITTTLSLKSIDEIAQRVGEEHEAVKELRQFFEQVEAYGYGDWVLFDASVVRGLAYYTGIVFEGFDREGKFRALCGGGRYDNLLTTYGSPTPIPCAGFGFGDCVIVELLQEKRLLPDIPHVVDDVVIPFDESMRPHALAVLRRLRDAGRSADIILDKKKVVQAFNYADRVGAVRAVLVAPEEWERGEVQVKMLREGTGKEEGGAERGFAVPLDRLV

Pks13 thioesterase: 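Polyketide synthase Pks13, Mycobacterium tuberculosis (UniProt I6X8D2). Enzyme assay of the thioesterase domain of polyketide synthase 13; the read-out is not stated. Compounds at 30 µM. The record gives no direction; the compounds picked for IC50 retests had high values, so higher reads as stronger inhibition. Size under these conditions: about 67,000 compounds, about 300 of them at 50% or above in at least one test.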
Toxoplasma: 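Assay of Toxoplasma gondii numbers, read through their beta-galactosidase reporter with a colour substrate. Concentration: 10 µM. The record gives no direction; the compounds picked for IC50 retests had high values, so higher reads as fewer parasites. About 67,000 compounds were tested under these conditions; 0.38% (about 260) showed 50% or more at least once.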
CoaBC: 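Coenzyme A biosynthesis protein CoaBC, Mycobacterium tuberculosis (UniProt P9WNZ1). Enzyme assay of CoaBC with a phosphate dye (Biomol Green) read at 650 nm. Tested at 30 µM. Direction is inferred from only a few compounds that gave an IC50; most scored high, so higher reads as stronger inhibition. Most strong results did not repeat in a second test. About 67,000 compounds were tested under these conditions; 0.06% (about 40) showed 50% or more at least once.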
MtTrpRS: 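Enzyme assay of tryptophanyl-tRNA synthetase; the read-out is not stated. Target: Tryptophan-tRNA ligase, Mycobacterium tuberculosis (UniProt P9WFT3). Tested at 10 µM. Higher most likely means stronger inhibition; the record gives no direction and few retests gave an IC50. About 65,000 compounds were tested under these conditions; 0.098% (about 64) showed 50% or more at least once.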
LiHisRS: 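Enzyme assay of histidyl-tRNA synthetase; the read-out is not stated. Target: Histidine-tRNA ligase, Leishmania infantum (UniProt A4I591). Concentration: 30 µM. The record gives no direction; compounds that gave an IC50 in retests scored well above the rest, so higher reads as stronger inhibition. The assay is labelled LdHisRS but filed under L. infantum. About 69,000 compounds were tested under these conditions; 0.6% (about 410) showed 50% or more at least once.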
TcHisRS: 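Histidine-tRNA ligase, Trypanosoma cruzi CL Brener (UniProt Q4DA54). Enzyme assay of histidyl-tRNA synthetase; the read-out is not stated. Compounds at 30 µM. Higher reads as stronger inhibition (inferred: compounds with an IC50 in retests scored well above the rest). Size under these conditions: about 69,000 compounds, about 31 of them at 50% or above in at least one test.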

SMILES | Pks13 thioesterase | Toxoplasma | CoaBC | MtTrpRS | LiHisRS | TcHisRS
O=C(NC1CCN(c2nccs2)CC1)c1cccs1 | -5.196 | 25.87 | 5.285 | 5.547 | 6.957 | -4.124
Cc1ccc(C(=O)N2CCC(O)(CN3CCc4ccccc4C3)C2)s1 (stereo unspecified) | -4.047 | -0.316 | -0.2427 | - | -18.84 | 2.198
Cc1cccc(C(C(=O)NC(C)(C)CN2CCOCC2)N(C)C)c1 (stereo unspecified) | - | 25.23 | 10.16 | 2.295 | 15.66 | 11.44
CCOCCN1CCN(Cc2nnc(-c3occc3C)o2)CC1 | -18.05 | -8.945 | 0.7444 | 4.632 | 12.77 | 8.671
Cc1noc(C)c1-c1cccc(CC2CCN(C(=O)c3cc[nH]n3)C2)n1 (stereo unspecified) | -35.63 | -1.054 | 2.85 | -0.3524 | 9.489 | 1.639
CN(C)C(=O)CCNC(=O)c1cnc(-c2ccccc2)nc1 | -37.56 | 0.1739 | 5.579 | 1.143 | 19.67 | 0
CC(C)Oc1ncccc1CNC(=O)N1CCC(n2cccc2)CC1 | -4.235 | 8.392 | 0 | -14.11 | 0 | 2.924
CN(C)c1cccc(C2CCN(c3ncccn3)CC2)n1 | 16.2 | - | -3.8 | -3.872 | 14.08 | 6.923
O=C(c1cnn2cccnc12)N1CCCC(n2ccnc2)C1 (stereo unspecified) | -14.01 | -0.3775 | 3.182 | -5.191 | 5.357 | 2.882
NC(=O)CN1CC2(CCC1=O)CCN(Cc1ccccc1F)CC2 | -39.04 | 8.991 | 2.057 | -3.8 | 9.375 | -22.35
CCOCC(=O)N1C[C@@H]2COC[C@]2(c2nc(C)no2)C1 | -8.882 | - | 1.733 | - | 9.91 | 5.525
COc1ccc2cc(C(=O)N3CCCCC3Cn3cccn3)[nH]c2c1 (stereo unspecified) | -9.502 | -1.482 | 2.41 | 2.798 | 5.479 | -3.053
CN(Cc1ccco1)C[C@H]1OC[C@@H]2CCN(Cc3ccccn3)C[C@@H]21 | -32.92 | - | 1.142 | 4.257 | 34.25 | 3.96
CC(C)(C)CNC1(Cc2cc(C(C)(C)O)on2)COC1 | -26.3 | -1.367 | -1.104 | 1.442 | 17.57 | 5.435
CC(C)c1ccc(OCCC(=O)N2CCC(C(=O)N(C)C)CC2)cc1 | -6.172 | 0.7781 | -17.11 | -2.95 | 25 | 5.917
CCC(C)NC(=O)c1cc(S(N)(=O)=O)c(Br)s1 (stereo unspecified) | -17.74 | -2.273 | 6.615 | -0.1899 | 17.12 | 10
Cc1nc(CCCNC(=O)C2CC(=O)N(C3CC3)C2)sc1C (stereo unspecified) | -26.23 | 6.711 | 9.247 | -0.2467 | 9.524 | 1.653
O=C1NCCCCC1NC(=O)N1CCc2ccccc21 (stereo unspecified) | -15.65 | -7.735 | 12.65 | 3.202 | 13.95 | 9.524
Nc1nc2c(c(NC(=O)Nc3cccc(Cl)c3)n1)CCCC2 | -9.263 | 4.247 | 3.594 | 6.459 | 15.65 | 0
CC(C)N(C)[C@@H]1CCN(Cc2ccco2)[C@H]1Cc1ccccc1 | 20.19 | 2.427 | - | 3.991 | 3.448 | 5.063
CCN(CC)c1nc2ccsc2c(=O)n1CCC(=O)NCc1cccs1 | -4.895 | 10.28 | 4.826 | 4.917 | 17.2 | 9.845
O=C(O)c1csc(NCCc2ccccc2)n1 | 1.847 | - | 4.854 | - | 11.88 | 3.409
Cc1cc(C)nc(N2CCN(C(=O)c3cc(Cl)c[nH]3)CC2)n1 | -21.09 | 1.544 | -6.237 | 1.727 | 15.24 | 7.438
NC(=O)CN1CC(c2nc(C3CC3)no2)C1 | -13.14 | - | 2.554 | -1.731 | 12.99 | 3.636
CS(=O)(=O)N[C@@H]1CCN(Cc2cccnc2)[C@H]1Cc1ccccc1.O=C(O)C(F)(F)F.O=C(O)C(F)(F)F | - | -2.874 | - | - | - | -
Cc1cnc(N2C[C@@H]3[C@@H](C(=O)NCC(C)C)CCS(=O)(=O)[C@@H]3C2)nc1 | -28.68 | - | -5.882 | -4.941 | 12.28 | 1.093
CCCN(C(=O)c1ccccn1)c1nc2c(s1)CCc1c-2cnn1C | -31.46 | -4.805 | 8.056 | 5.602 | 105.6 | 24.32
CC(O)CN1CCN(Cc2csc(-c3ncccn3)n2)CC1 (stereo unspecified) | -26.01 | 0.8547 | 3.644 | -2.86 | 20 | 7.609
Cc1nc(C)n(CC2CCCN(CCC(=O)N3CCCCC3)C2)n1 (stereo unspecified) | -13.52 | -9.628 | 7.692 | -0.2346 | -2.667 | 1.887
Cc1cc(CNC2(CO)CCOCC2)ccc1Br | -1.899 | -15.87 | -0.8589 | -0.9046 | 7.843 | 1.235
COc1ccc(C(=O)NCCCn2ccnc2)c(OC)n1 | -44.59 | -0.528 | 3.628 | -0.687 | 21.95 | -3.008
O=C(O)C(F)(F)F.c1cnc(NC2COC3(CCN(Cc4nccs4)CC3)C2)cn1 (stereo unspecified) | - | -11.56 | - | - | - | -
COCCC(=O)NCc1ccc(-c2ccccc2C(=O)O)cn1 | -0.9978 | -7.711 | -8.676 | -4.4 | 4.027 | -0.2857
[H][C@]12CN(C(=O)CC3CCCC3)CCN1C[C@@H](CO)[C@@H]2c1ccccc1 | - | -1.882 | - | - | - | -
COCCN1CCC2(COCCN(C(=O)Cc3cccs3)C2)C1 (stereo unspecified) | -33.51 | - | -3.484 | -6.404 | 16 | 0
COCC(=O)N1CCCCC1c1nc(C)c2c(n1)N(C1CC1)C(=O)CC2 (stereo unspecified) | 1.853 | 10.73 | -1.456 | 6.695 | 12.86 | 7.28
COCCNC(=O)c1cccnc1Sc1cc(OC)ccc1OC | -17 | 16.59 | 2.427 | - | 13.86 | 2.273
COCc1noc(CCC(=O)c2ccc3c(c2)OCCO3)n1 | 1.673 | 14.72 | 5.471 | 1.485 | -7.317 | 9.135
Cc1oncc1C(=O)NCc1cc(=O)n2c(n1)CN(C(C)C)CCC2 | -5.126 | - | -6.582 | -2.931 | 4.425 | 4
CCS(=O)(=O)N(C)CCCNCc1c(C)nn(C)c1N(C)C | -15.6 | -3.912 | -3.684 | -0.8021 | 15.74 | 6.158
C=C(C)COc1cccc(CNCCc2c[nH]cn2)c1 | -31.51 | -5.498 | -2.163 | 1.712 | 12.5 | 8.861
O=C(CCn1c(C(F)F)cc2cccnc21)NC1CCCC1 | -0.8996 | 6.286 | 2.349 | -3.137 | 6.207 | 3.802
Cc1ccc(C(NC(=O)CC2CCN(C(C)C)CC2)C(=O)O)cc1 (stereo unspecified) | -6.134 | 2.308 | -2.345 | -1.471 | 11.54 | 1.667

The last 4 entries again:

SMILES	Pks13 thioesterase	Toxoplasma	CoaBC	MtTrpRS	LiHisRS	TcHisRS
CCS(=O)(=O)N(C)CCCNCc1c(C)nn(C)c1N(C)C	-15.6	-3.912	-3.684	-0.8021	15.74	6.158
C=C(C)COc1cccc(CNCCc2c[nH]cn2)c1	-31.51	-5.498	-2.163	1.712	12.5	8.861
O=C(CCn1c(C(F)F)cc2cccnc21)NC1CCCC1	-0.8996	6.286	2.349	-3.137	6.207	3.802
Cc1ccc(C(NC(=O)CC2CCN(C(C)C)CC2)C(=O)O)cc1 (stereo unspecified)	-6.134	2.308	-2.345	-1.471	11.54	1.667

Source: ChEMBL document CHEMBL3988442, “University of Dundee, Small-Polar-MMV Screening Library” (2021).